From the supplement of paper PMC12067093, “Discovery and optimisation of a covalent ligand for TRIM25 and its application to targeted protein ubiquitination” (Chemical Science, 2025)
Some of the results follow.

The chains behind the UniProt entries cited, without tags or fusion partners. Where a name states a change or a piece, a line headed by the entry shows the natural chain unless it says otherwise.
UniProt Q9Y2L1: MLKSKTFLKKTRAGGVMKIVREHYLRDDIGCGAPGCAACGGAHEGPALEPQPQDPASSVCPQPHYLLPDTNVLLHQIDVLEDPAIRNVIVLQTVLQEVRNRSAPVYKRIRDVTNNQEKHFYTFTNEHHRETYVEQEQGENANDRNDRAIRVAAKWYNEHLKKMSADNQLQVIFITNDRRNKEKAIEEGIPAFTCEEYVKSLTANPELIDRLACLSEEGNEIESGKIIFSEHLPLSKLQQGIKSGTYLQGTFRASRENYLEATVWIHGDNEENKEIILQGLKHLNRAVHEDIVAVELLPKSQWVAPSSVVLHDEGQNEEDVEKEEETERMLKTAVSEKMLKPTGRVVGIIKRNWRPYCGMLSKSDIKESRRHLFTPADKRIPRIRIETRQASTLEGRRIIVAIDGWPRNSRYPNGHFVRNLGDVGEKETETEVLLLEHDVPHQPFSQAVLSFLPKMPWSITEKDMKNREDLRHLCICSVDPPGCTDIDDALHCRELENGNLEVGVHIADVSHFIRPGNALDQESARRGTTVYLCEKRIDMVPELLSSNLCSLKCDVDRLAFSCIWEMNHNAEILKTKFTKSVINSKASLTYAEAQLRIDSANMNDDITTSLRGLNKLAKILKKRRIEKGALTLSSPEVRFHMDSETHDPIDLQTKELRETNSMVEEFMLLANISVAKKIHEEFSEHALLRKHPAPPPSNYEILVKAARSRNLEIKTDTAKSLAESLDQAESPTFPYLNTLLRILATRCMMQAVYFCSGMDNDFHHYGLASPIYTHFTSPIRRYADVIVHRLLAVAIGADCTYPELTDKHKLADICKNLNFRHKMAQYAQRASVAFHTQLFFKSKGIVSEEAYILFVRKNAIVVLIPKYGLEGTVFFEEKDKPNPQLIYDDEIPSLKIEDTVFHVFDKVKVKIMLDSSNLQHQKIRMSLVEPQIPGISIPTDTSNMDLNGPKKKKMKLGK
UniProt Q9H5Z1: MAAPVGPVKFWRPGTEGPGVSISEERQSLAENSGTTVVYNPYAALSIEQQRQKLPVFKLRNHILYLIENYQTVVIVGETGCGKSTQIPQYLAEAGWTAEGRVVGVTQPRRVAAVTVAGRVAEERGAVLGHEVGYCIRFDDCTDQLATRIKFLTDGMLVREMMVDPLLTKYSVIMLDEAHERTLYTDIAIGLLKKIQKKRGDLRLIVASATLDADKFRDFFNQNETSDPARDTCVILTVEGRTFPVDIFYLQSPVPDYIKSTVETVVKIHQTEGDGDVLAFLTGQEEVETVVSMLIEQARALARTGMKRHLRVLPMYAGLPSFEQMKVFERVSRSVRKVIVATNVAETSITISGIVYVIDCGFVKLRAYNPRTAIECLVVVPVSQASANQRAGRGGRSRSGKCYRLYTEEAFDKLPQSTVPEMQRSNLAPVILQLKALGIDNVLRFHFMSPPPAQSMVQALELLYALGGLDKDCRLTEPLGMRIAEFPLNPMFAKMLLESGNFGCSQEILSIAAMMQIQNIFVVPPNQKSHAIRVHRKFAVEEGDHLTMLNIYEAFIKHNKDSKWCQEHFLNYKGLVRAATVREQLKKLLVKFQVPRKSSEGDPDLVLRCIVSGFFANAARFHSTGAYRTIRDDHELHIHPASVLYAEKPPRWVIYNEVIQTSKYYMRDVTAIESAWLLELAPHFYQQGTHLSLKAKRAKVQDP
UniProt Q7L2E3: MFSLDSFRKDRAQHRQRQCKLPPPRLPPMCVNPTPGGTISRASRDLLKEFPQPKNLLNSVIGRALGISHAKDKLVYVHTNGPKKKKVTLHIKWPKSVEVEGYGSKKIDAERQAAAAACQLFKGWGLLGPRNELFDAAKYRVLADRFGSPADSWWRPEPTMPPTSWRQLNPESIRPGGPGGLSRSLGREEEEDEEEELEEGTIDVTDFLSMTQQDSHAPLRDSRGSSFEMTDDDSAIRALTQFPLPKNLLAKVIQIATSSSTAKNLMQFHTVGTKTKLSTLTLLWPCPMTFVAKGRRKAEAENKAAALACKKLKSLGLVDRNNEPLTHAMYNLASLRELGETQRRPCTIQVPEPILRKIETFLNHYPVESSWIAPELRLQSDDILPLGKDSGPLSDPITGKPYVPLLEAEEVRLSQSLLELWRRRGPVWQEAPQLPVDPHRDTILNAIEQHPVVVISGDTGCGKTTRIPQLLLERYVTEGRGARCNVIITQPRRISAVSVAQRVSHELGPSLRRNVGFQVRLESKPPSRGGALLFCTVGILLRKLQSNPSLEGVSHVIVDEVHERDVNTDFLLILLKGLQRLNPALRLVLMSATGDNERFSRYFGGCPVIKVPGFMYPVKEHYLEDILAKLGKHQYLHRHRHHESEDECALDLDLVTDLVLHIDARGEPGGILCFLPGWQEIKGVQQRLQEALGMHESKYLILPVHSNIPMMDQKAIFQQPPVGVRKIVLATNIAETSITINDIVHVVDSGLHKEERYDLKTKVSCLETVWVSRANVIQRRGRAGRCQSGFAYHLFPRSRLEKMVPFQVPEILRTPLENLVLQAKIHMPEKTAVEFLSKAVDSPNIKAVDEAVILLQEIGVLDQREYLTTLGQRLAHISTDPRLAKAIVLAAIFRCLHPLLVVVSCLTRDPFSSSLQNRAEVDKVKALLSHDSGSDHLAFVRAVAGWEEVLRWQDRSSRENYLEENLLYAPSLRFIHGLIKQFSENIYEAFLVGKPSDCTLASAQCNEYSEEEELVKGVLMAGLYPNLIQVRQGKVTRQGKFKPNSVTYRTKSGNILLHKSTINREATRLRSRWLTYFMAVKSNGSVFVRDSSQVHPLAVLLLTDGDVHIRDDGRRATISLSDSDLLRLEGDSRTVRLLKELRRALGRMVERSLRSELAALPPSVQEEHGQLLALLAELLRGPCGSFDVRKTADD
UniProt P26358: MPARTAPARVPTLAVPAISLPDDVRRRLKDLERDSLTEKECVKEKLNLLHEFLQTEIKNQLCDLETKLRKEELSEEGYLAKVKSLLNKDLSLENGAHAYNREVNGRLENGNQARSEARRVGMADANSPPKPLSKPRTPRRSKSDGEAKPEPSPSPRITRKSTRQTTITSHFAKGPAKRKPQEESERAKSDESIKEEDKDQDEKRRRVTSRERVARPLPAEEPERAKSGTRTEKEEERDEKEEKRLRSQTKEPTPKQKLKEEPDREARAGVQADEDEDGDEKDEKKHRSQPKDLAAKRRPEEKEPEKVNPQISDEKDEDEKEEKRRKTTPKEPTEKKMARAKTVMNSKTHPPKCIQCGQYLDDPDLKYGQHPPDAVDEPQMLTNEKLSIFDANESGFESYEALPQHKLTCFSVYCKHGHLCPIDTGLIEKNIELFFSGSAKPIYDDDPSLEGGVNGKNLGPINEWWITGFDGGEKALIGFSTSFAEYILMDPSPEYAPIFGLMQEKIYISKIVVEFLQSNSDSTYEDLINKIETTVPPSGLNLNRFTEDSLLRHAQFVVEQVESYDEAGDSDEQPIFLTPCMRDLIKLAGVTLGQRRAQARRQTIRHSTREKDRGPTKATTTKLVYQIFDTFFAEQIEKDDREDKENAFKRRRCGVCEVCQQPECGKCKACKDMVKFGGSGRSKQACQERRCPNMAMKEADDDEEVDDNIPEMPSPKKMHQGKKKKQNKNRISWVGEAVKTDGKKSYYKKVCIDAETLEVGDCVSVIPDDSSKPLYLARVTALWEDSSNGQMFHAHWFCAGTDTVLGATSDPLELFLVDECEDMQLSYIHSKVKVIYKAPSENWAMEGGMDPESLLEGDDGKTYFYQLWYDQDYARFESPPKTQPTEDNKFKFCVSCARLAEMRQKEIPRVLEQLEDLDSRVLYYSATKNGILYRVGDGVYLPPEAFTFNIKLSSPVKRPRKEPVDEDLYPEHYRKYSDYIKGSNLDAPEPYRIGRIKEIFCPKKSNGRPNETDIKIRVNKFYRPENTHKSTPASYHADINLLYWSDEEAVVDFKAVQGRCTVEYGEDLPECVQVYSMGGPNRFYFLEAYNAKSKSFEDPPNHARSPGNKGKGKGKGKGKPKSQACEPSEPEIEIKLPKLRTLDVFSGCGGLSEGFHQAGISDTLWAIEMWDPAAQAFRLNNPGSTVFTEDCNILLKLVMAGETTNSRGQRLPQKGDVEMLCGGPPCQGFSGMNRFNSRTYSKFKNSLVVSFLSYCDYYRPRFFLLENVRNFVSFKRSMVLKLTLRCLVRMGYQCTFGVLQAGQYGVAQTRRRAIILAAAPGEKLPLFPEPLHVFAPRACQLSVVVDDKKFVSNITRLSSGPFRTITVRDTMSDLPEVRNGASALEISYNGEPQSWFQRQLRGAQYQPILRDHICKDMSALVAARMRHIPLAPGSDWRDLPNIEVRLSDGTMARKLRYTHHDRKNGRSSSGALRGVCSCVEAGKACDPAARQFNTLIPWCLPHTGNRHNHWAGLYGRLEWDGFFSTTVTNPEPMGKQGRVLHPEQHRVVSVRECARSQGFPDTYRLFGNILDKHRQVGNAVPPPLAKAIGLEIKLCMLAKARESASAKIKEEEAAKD
UniProt P49184: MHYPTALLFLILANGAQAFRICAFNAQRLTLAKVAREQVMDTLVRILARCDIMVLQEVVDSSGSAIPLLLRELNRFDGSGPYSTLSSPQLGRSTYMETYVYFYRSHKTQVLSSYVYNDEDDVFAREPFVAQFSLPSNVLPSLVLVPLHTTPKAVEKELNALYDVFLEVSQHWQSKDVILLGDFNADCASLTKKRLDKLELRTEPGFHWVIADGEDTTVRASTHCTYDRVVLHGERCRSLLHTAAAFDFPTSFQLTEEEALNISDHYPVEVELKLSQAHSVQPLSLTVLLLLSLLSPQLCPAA
UniProt Q9Y2G8: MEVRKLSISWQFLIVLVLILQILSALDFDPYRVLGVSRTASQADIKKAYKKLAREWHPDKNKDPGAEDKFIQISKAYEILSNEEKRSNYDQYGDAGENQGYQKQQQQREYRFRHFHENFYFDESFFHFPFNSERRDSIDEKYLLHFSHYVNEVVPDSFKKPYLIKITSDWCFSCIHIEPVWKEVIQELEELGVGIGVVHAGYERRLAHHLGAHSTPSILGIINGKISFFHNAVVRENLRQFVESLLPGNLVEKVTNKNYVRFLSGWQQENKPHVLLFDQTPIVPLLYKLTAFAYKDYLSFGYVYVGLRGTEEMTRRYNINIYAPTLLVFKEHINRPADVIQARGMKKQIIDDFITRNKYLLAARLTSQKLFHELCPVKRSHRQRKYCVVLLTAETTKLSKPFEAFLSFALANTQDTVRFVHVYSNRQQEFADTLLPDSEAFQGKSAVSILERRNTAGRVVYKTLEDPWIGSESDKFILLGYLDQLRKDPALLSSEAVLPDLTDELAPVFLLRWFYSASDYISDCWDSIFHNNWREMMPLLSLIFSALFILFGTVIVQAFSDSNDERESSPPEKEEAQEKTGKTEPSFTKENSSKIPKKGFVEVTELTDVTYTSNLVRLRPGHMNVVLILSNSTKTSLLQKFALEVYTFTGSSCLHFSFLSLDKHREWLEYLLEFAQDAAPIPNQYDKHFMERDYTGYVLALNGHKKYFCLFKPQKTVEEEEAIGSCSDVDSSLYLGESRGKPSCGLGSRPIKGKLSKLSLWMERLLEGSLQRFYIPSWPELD
UniProt Q9H6R0: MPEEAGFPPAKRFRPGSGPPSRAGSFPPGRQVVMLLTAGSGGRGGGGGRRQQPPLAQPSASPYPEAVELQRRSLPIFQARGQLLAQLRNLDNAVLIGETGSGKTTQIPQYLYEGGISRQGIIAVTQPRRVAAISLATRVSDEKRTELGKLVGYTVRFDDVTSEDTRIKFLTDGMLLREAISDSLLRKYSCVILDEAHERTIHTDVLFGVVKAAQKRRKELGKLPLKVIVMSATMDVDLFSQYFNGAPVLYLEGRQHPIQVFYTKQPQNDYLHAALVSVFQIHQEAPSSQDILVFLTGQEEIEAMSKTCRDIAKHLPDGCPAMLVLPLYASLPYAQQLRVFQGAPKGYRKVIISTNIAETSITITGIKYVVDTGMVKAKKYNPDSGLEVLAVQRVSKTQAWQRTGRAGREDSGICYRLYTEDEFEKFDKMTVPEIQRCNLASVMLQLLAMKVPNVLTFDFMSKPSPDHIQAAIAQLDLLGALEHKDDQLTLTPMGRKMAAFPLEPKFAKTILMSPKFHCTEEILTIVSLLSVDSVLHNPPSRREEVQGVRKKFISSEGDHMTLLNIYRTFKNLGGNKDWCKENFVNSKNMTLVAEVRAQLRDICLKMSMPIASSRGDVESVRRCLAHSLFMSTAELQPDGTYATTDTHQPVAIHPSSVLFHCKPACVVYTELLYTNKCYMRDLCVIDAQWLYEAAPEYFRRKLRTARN
UniProt Q9NW81: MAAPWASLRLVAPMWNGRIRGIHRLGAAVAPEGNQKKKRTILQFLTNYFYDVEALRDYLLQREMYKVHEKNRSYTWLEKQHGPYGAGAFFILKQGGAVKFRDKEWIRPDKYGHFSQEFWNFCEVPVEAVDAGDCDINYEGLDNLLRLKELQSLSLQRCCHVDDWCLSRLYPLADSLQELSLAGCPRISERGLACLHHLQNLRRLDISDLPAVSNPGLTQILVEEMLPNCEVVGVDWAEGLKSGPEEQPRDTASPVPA

Compound: Cc1cc(ccc1-c1ccccc1)C(=O)N1CCCN(CC1)C(=O)CCl [compound 10]
Experiment: probe-labelled cysteine peptide fold change vs DMSO (competition) (log2 fold change); higher = less target engagement (more negative = stronger competition)
Settings: THP-1, incubation time: 4 h
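Note: competitive profiling in live THP-1 cells: cysteine peptides tagged with an iodoacetamide desthiobiotin (IA-DTB) probe, intensity after compound treatment relative to DMSO-treated cells.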

For “DHRS9_Q9BPW9_60_KGFHVIAACLTESGSTALK (UniProt Q9BPW9)”, which “probe-labelled cysteine peptide fold change” value (10 µM) is on record?
Its value is 0.098.

What about the “probe-labelled cysteine peptide fold change” value (50 µM) of the same target?
The value was -0.134.

Which “probe-labelled cysteine peptide fold change” value (10 µM) does the source give for “DHX15_O43143_190_RGVACTQPR (UniProt O43143)” here?
Its value is -0.0431.

And the “probe-labelled cysteine peptide fold change” value (50 µM)?
Its value is 0.0597.

What does the source list for “DISC1_Q9NRI5_239_EAESHCQSPQEMGAK (UniProt Q9NRI5)”?
probe-labelled cysteine peptide fold change (10 µM): -0.264; probe-labelled cysteine peptide fold change (50 µM): -0.212

What does the source list for “DIS3_Q9Y2L1_483_HLCICSVDPPGCTDIDDALHCR (UniProt Q9Y2L1)”?
probe-labelled cysteine peptide fold change (10 µM): 0.0361; probe-labelled cysteine peptide fold change (50 µM): -0.104

With “DIP2A_Q14689_543_ALTQACGYSEAETLTNVLDFKR (UniProt Q14689)” as the target, how does the “probe-labelled cysteine peptide fold change” value (10 µM) read?
The value was 0.123.

And the “probe-labelled cysteine peptide fold change” value (50 µM)?
The value was 0.3.

How did the “probe-labelled cysteine peptide fold change” value (10 µM) turn out when “DHX35_Q9H5Z1_609_CIVSGFFANAAR (UniProt Q9H5Z1)” was run?
The value was 0.114.

And the “probe-labelled cysteine peptide fold change” value (50 µM)?
The value was 0.0349.

With “DNAJA1_P31689_302_CVLNEGMPIYR (UniProt P31689)” as the target, how does the “probe-labelled cysteine peptide fold change” value (10 µM) read?
The value was 0.0431.

And the “probe-labelled cysteine peptide fold change” value (50 µM)?
The value was 0.091.

“DNAJA4_Q8WW22_272_IQLSEALCGFKK (UniProt Q8WW22)” was tested. Which “probe-labelled cysteine peptide fold change” value (10 µM) did it give?
The value was -0.0485.

And the “probe-labelled cysteine peptide fold change” value (50 µM)?
Its value is -0.0843.

For “DHX30_Q7L2E3_1183_GPCGSFDVR (UniProt Q7L2E3)”, which “probe-labelled cysteine peptide fold change” value (10 µM) is on record?
Its value is 0.029.

And the “probe-labelled cysteine peptide fold change” value (50 µM)?
The value was 0.0114.

“DNMT1_P26358_1485_ACDPAAR (UniProt P26358)” was tested. Which “probe-labelled cysteine peptide fold change” value (10 µM) did it give?
Its value is 0.112.

And the “probe-labelled cysteine peptide fold change” value (50 µM)?
Its value is 0.376.

How did the “probe-labelled cysteine peptide fold change” value (10 µM) turn out when “DNAJA3_Q96EY1_292_GSIIISPCVVCR (UniProt Q96EY1)” was run?
The value was 0.195.

And the “probe-labelled cysteine peptide fold change” value (50 µM)?
The value was 0.0821.

With “DLEC1_Q9Y238_256_LEDSCR (UniProt Q9Y238)” as the target, how does the “probe-labelled cysteine peptide fold change” value (10 µM) read?
The value was 0.773.

And the “probe-labelled cysteine peptide fold change” value (50 µM)?
Its value is 1.66.

Which “probe-labelled cysteine peptide fold change” value (10 µM) does the source give for “DNAJC13_O75165_2181_SLQYGEQVNEILCR (UniProt O75165)” here?
The value was 0.0495.

And the “probe-labelled cysteine peptide fold change” value (50 µM)?
Its value is 0.24.

With “DNAJA2_O60884_308_VIEPGCVR (UniProt O60884)” as the target, how does the “probe-labelled cysteine peptide fold change” value (10 µM) read?
Its value is 0.117.

What about the “probe-labelled cysteine peptide fold change” value (50 µM) of the same target?
The value was 0.0681.

How did the “probe-labelled cysteine peptide fold change” value (10 µM) turn out when “DNASE1L1_P49184_187_DVILLGDFNADCASLTK (UniProt P49184)” was run?
Its value is 0.0242.

And the “probe-labelled cysteine peptide fold change” value (50 µM)?
The value was 0.14.

Which results are given for “DIEXF_Q68CQ4_311_HVYCLHVINHILK (UniProt Q68CQ4)”?
probe-labelled cysteine peptide fold change (10 µM): 0.0373; probe-labelled cysteine peptide fold change (50 µM): 0.107

What does the source list for “DNMT1_P26358_353_CIQCGQYLDDPDLK (UniProt P26358)”?
probe-labelled cysteine peptide fold change (10 µM): -0.0416; probe-labelled cysteine peptide fold change (50 µM): -0.155

What does the source list for “DIAPH3_Q9NSV4_1125_SHYNINCNSTR (UniProt Q9NSV4)”?
probe-labelled cysteine peptide fold change (10 µM): -0.0609; probe-labelled cysteine peptide fold change (50 µM): -0.171

For “DNAAF5_Q86Y56_773_MAAASTLVTWLQCVK (UniProt Q86Y56)”, which “probe-labelled cysteine peptide fold change” value (10 µM) is on record?
Its value is 0.204.

What about the “probe-labelled cysteine peptide fold change” value (50 µM) of the same target?
Its value is 0.159.

Which results are given for “DNAJC2_Q99543_140_EGDNDYFTCITK (UniProt Q99543)”?
probe-labelled cysteine peptide fold change (10 µM): 0.0333; probe-labelled cysteine peptide fold change (50 µM): -0.1

Which “probe-labelled cysteine peptide fold change” value (10 µM) does the source give for “DIDO1_Q9BTC0_261+273_AAQDIKDEEPGDLGRPKPECEGYDPNALYCICR (UniProt Q9BTC0)” here?
Its value is -0.0965.

What about the “probe-labelled cysteine peptide fold change” value (50 µM) of the same target?
Its value is -0.859.

“DHX8_Q14562_280_VTSIMQFGCFVQLEGLR (UniProt Q14562)” was tested. Which “probe-labelled cysteine peptide fold change” value (10 µM) did it give?
The value was -0.0405.

What about the “probe-labelled cysteine peptide fold change” value (50 µM) of the same target?
Its value is 0.214.

How did the “probe-labelled cysteine peptide fold change” value (10 µM) turn out when “DIAPH2_O60879_283_ILSAICIVGEENILDK (UniProt O60879)” was run?
Its value is 0.315.

What about the “probe-labelled cysteine peptide fold change” value (50 µM) of the same target?
Its value is 0.034.

With “DHX30_Q7L2E3_606_YFGGCPVIK (UniProt Q7L2E3)” as the target, how does the “probe-labelled cysteine peptide fold change” value (10 µM) read?
The value was 0.0194.

What about the “probe-labelled cysteine peptide fold change” value (50 µM) of the same target?
The value was -0.149.

With “DNAJA1_P31689_150+153_GAVECCPNCR (UniProt P31689)” as the target, how does the “probe-labelled cysteine peptide fold change” value (10 µM) read?
The value was -0.00131.

What about the “probe-labelled cysteine peptide fold change” value (50 µM) of the same target?
Its value is -0.617.

“DNMT1_P26358_1071_CTVEYGEDLPECVQVYSMGGPNR (UniProt P26358)” was tested. Which “probe-labelled cysteine peptide fold change” value (10 µM) did it give?
The value was -0.231.

And the “probe-labelled cysteine peptide fold change” value (50 µM)?
Its value is -0.414.

What does the source list for “DIS3L2_Q8IYB7_739_QADHCNDR (UniProt Q8IYB7)”?
probe-labelled cysteine peptide fold change (10 µM): 0.0202; probe-labelled cysteine peptide fold change (50 µM): 0.243

With “DNAJC9_Q8WXX5_150_GDMDQIMESVLCVQYTEEPR (UniProt Q8WXX5)” as the target, how does the “probe-labelled cysteine peptide fold change” value (10 µM) read?
The value was -0.127.

What about the “probe-labelled cysteine peptide fold change” value (50 µM) of the same target?
Its value is 0.172.

What does the source list for “DMXL2_Q8TDJ6_62_HGNIQVSCVECSNQQGR (UniProt Q8TDJ6)”?
probe-labelled cysteine peptide fold change (10 µM): -0.248; probe-labelled cysteine peptide fold change (50 µM): -0.602

How did the “probe-labelled cysteine peptide fold change” value (10 µM) turn out when “DNAJC16_Q9Y2G8_375_LFHELCPVKR (UniProt Q9Y2G8)” was run?
The value was -0.0698.

What about the “probe-labelled cysteine peptide fold change” value (50 µM) of the same target?
Its value is -0.0193.

For “DNM1L_O00429_470_LHDAIVEVVTCLLR (UniProt O00429)”, which “probe-labelled cysteine peptide fold change” value (10 µM) is on record?
Its value is -0.156.

And the “probe-labelled cysteine peptide fold change” value (50 µM)?
The value was -0.202.

“DHX33_Q9H6R0_190_YSCVILDEAHER (UniProt Q9H6R0)” was tested. Which “probe-labelled cysteine peptide fold change” value (10 µM) did it give?
The value was 0.00983.

What about the “probe-labelled cysteine peptide fold change” value (50 µM) of the same target?
Its value is 0.238.

With “DHX9_Q08211_612_DKDDDGGEDDDANCNLICGDEYGPETR (UniProt Q08211)” as the target, how does the “probe-labelled cysteine peptide fold change” value (10 µM) read?
Its value is -0.375.

And the “probe-labelled cysteine peptide fold change” value (50 µM)?
The value was 0.276.

For “DMRT1_Q9Y5R6_105_CNLIAER (UniProt Q9Y5R6)”, which “probe-labelled cysteine peptide fold change” value (10 µM) is on record?
Its value is 0.107.

What about the “probe-labelled cysteine peptide fold change” value (50 µM) of the same target?
Its value is 0.406.

What does the source list for “DMAC2_Q9NW81_184_LYPLADSLQELSLAGCPR (UniProt Q9NW81)”?
probe-labelled cysteine peptide fold change (10 µM): 0.0158; probe-labelled cysteine peptide fold change (50 µM): -0.00166

For “DHX36_Q9H2U1_611_VQPGHCYHLYNGLR (UniProt Q9H2U1)”, which “probe-labelled cysteine peptide fold change” value (10 µM) is on record?
The value was 0.158.

What about the “probe-labelled cysteine peptide fold change” value (50 µM) of the same target?
The value was -0.0716.
